The campaign covered roughly 31,000 sequences. About 1,400 (4.5%) were called active.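 Rule for the calls: active = median seed-adjusted z-score above 1 or below -1; inactive = the rest.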 The list shows a part of the results.
Experiment: Novel Modifiers of Survival Motor Neuron (SMN) Protein: Gene Identification via Genome-wide siRNA Screen;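 note: luminescence tracks full-length SMN protein made from the SMN2 reporter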
Conditions: HEK293T SMN2-luciferase reporter, siRNA knockdown, 72 h; actives lie on both sides
Excerpt: Spinal muscular atrophy (SMA) is the most common neuromuscular autosomal recessive disorder and one of the leading genetic causes of infant death. SMA results from mutations inducing loss of function or deletion in the survival of motor neuron-1 gene (SMN1), leading to deficiency of the survival motor neuron (SMN) protein. Although a second nearly identical gene, SMN2, is retained in humans, its expression primarily produces an aberrantly spliced isoform that is largely unstable and quickly degraded. We performed a genome-wide RNAi screen using a cell-based reporter assay to identify genes and pathways that modulate SMN protein stability. The screen identified over 200 genes that led to the greatest increase or decrease in luciferase expression.
Using HEK293T cells stably expressing a luciferase reporter that combines the promoter and splicing based cassettes in tandem with the major portion of the native SMN2 cDNA with luciferase, we performed a genome-wide RNAi screen to identify modulators of SMN protein levels. Luciferase is expressed when full-length SMN protein is generated with luminescence signal proportional to SMN protein levels. Our luciferase-based reporter assay was used to screen Ambion Silencer Select Human Druggable Genome siRNA library (10418 genes, 3 unique siRNAs per gene) using lipid-based reverse transfection.
Briefly, 1 pmol of each siRNA was spotted to a well of a 384-well plate (Corning, Corning, NY) and 20 microL of serum-free DMEM containing […] of Lipofectamine RNAiMax (Life Technologies, Carlsbad, CA) was then added to each well. Transfected cells were maintained at 37 degrees C in 5% CO2 for 72 hours, 20 microL of ONE-Glo Reagent (Promega) was added to wells for luciferase quantification. Raw luminescence reads were normalized to Ambion(R) Silencer(R) Negative Control #2 siRNA, then log10 transformed. A robust statistical measure of median absolute deviation (MAD) to standardize siRNA activities from each screen. Common Seed Analysis was used to help prioritize clean hits as opposed to those appearing to arise from seed based off-target effects. Candidate modulators were defined as the genes having a MAD score greater than 1.0 or less than -1.0.

| Sequence | median seed-adjusted z-score |
| --- | --- |
| GAAUCUCACAAUUAUGUAUTT against NCK2 | inactive: -0.397 |
| GCUCCACGGUUGUUGACUATT against ULK4 | inactive: 0.0834 |
| CUGCAGCGAUGGUUACAUUTT against PPAP2A | inactive: 0 |
| CGGAGUAUACAAACCUUUATT against ATP6V0D2 | inactive: -0.0346 |
| GAUUCUCCUAGGUACCCUATT against PROX2 | inactive: -0.825 |
| GCCCUAAACAGGAAGGUCATT against TEK | inactive: -0.347 |
| UACCCAGCAUGGAUGCUCATT against ZNF688 | inactive: -0.475 |
| ACUGUGAAAUUGGACCAAUTT against RABIF | inactive: 0 |
| CCCAAUCAGUGGACACUAUTT against MCM6 | inactive: 0.266 |
| GGGUUGUUUCAAUCUAACATT against HDAC2 | active: -1.27 |
| GAUUAUCGAAUGUCUGAAATT against GLG1 | inactive: 0.308 |
| CACUCUUGUUGUCAAGAAATT against HNRNPCL1 | inactive: 0 |
| GAGUUCCGCCUGAUGAUGATT against DND1 | inactive: 0.157 |
| CCCGGGAGAUUUUCAGUAATT against RGS12 | inactive: 0.404 |
| CAAGAAUCUUAAGAUAGAATT against CD4 | inactive: -0.566 |
| CCUUCAAGAUCAUUCGUGATT against VPS72 | inactive: 0.572 |
| GAGUGUGGAUCGCUAUGUATT against OPRL1 | inactive: -0.9 |
| CAACUAUGCCGACACGCUUTT against PCDHGA6 | inactive: 0.0559 |
| CGAUAUGGAUUCCAAUACATT against AK5 | inactive: -0.0461 |
| GAACUUAUCUAACUCCAAATT against ADORA3 | inactive: 0 |
| CAACCUUCGUAGUGACAAUTT against SCMH1 | inactive: -0.305 |
| UGAUACUCCUGGAAUACAATT against CNTF | inactive: 0.3 |
| GGAAUACCCUAGAUCAGGATT against ZKSCAN2 | inactive: -0.0343 |
| GGAACUGAAAUAAGUAUUATT against GPR113 | inactive: -0.434 |
| GCAACUUGAGGGAUAACUATT against PDIA3 | inactive: -0.619 |
| GAGACGUGGUGGAACAAGATT against GRID2 | inactive: 0.676 |
| GCACAAGUACAACAAACUUTT against BLMH | inactive: -0.156 |

3 successive entries already listed:

| Sequence | median seed-adjusted z-score |
| --- | --- |
| GAUUCUCCUAGGUACCCUATT against PROX2 | inactive: -0.825 |
| GCCCUAAACAGGAAGGUCATT against TEK | inactive: -0.347 |
| UACCCAGCAUGGAUGCUCATT against ZNF688 | inactive: -0.475 |

The list continues:

| Sequence | median seed-adjusted z-score |
| --- | --- |
| CUUCAACUCCAGUUAGUCUTT against SP3 | inactive: -0.0943 |
| CAAGUACGAUGAGUAUGAATT against XK | inactive: 0.403 |
| CGAGAGAGCUAGCUCUACATT against DDX31 | inactive: 0.0144 |
| GGCUCUUACCGCUAUCCUATT against SLC6A5 | inactive: -0.204 |
| GGAUUUCCAGGUGCUCGAATT against FARP2 | inactive: -0.0358 |
| ACUUCAAUGUUGCAUUGCATT against NECAP2 | inactive: -0.539 |
| GCCUAAUGAUGCUCUAGUATT against TTC6 | inactive: 0.234 |
| CGAUCCUCUUGGUUUACCATT against NAALAD2 | inactive: -0.00068 |
| GGACAGUGAUGGAAGCAUUTT against ADAM7 | inactive: -0.0638 |
| AGCAGGAUAUGAUCCGGAATT against SEC14L4 | inactive: -0.714 |
| GGGCAUACAUGCAUCAACATT against FBLN1 | inactive: 0.518 |
| GGACUCACCAAAUAGAUCATT against ZNF818 | inactive: -0.223 |
| CCAGCUAAGAGACAAUGUATT against GABPB2 | inactive: 0.441 |
| GAUCUUCGCUUUAACAGAATT against PXDN | inactive: 0.771 |
| GCACAGUUGGGAUCGAUUUTT against RAB3C | inactive: 0.043 |
| GAAGCUGCCUUGGACAUCATT against B4GALNT1 | inactive: 0.0265 |
| CGUGGAAGAUUUUCACAGATT against ZNF174 | inactive: 0.035 |
| AAACAAGAGUCCCUCUAAATT against HMGA2 | inactive: -0.327 |
| GUGGAUAAGCUGAACAUUATT against CTNNA1 | inactive: -0.0588 |
| GCUAUAAGGUGGACCACGATT against ARHGAP27 | inactive: -0.777 |
| GUUUCGAGAUUGUUGCUAUTT against CCNL1 | active: -1.26 |
| GUCUGAUAAUGUUACUCGATT against GPR115 | inactive: -0.189 |
| GCACAUUAAAGUUACAAAUTT against NDUFB2 | inactive: 0.063 |
| CAACUUCUAAGGGAAUUCATT against HPGD | inactive: -0.145 |
| GGUCCAAGCUGAUUACCCUTT against UNC13A | active: -2.1 |
| GAUCGAUUCAUACCAUAUATT against MCM8 | inactive: 0.279 |
| GAAGGAAGCGAGACUCAUATT against LRPAP1 | inactive: -0.0616 |
